Taken from: PubChem BioAssay AID504793 (Drosophila RNAi Screening Center, 2011)
The deposit covers about 23,000 reagents; below is an unselected part of those that have a named target and a result. Over the whole deposit, 62 (0.27%) got an active call. 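Calls come from follow-up tests whose scores are not deposited, so confirmed genes may have low counts here; counts are not normalised per plate.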 The raw values are shown without normalisation. Reagent sequences are not shown.

Test: 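Genes required for cells to halt at G2/M after double-strand DNA breaks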 (primary screen)
Cells: Drosophila S2R+ cells
Reagent: long dsRNA against Drosophila genes, about 0.25 µg dsRNA per well
Duration: 4 days of dsRNA, then 4 hours of drug before read-out
Treatment: doxorubicin 0.5 µM for 4 hours to cause double-strand breaks, in cells also given a low, harmless dose of dsRNA against nbs to sensitise the assay
Read-out: 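Mitotic index as the number of phospho-histone H3-positive cells in each well following doxorubicin, given as raw counts without normalisation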
Reading the numbers: mitotic cells: higher = more cells in mitosis, weaker G2 arrest
Hit rule: 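Genes are called active only when high mitotic counts were reproduced with independent dsRNAs and mitosis was checked for delay without damage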
Calls: active = confirmed in follow-up tests; inactive = not confirmed

mitotic cells, replicate 1, by gene knocked down and reagent
CG3091: DRSC18274 7 inactive
CG31781 (retired record): DRSC02431 4 inactive; DRSC02432 3 inactive
Kah: DRSC07887 3 inactive; DRSC08515 7 inactive; DRSC25608 10 inactive
mld: DRSC13681 3 inactive; DRSC14622 4 inactive; DRSC21771 16 inactive; DRSC23427 9 inactive; DRSC23729 6 inactive
Cyt-c-p: DRSC03310 6 inactive
CalpB: DRSC11109 6 inactive; DRSC25885 12 inactive
CG42699: DRSC18076 9 inactive; DRSC18341 19 inactive; DRSC25221 12 inactive
Cpr72Eb: DRSC09870 5 inactive
CG33771: DRSC11718 11 inactive
CG13404: DRSC19536 14 inactive
U2A: DRSC06445 7 inactive; DRSC28070 9 inactive
CG13023: DRSC09903 3 inactive
CycB: DRSC04605 11 inactive
CG15211: DRSC19657 8 inactive
lectin-29Ca: DRSC02635 4 inactive
CG30378: DRSC05071 5 inactive
arm: DRSC18738 5 inactive; DRSC39139 9 inactive
alrm: DRSC14436 11 inactive
Osi10b: DRSC12279 7 inactive
CG14297: DRSC14776 7 inactive
CG14440: DRSC23008 10 inactive; DRSC23009 14 inactive; DRSC25806 5 inactive
CG10713: DRSC09786 5 inactive; DRSC24532 6 inactive
Mrgn1: DRSC20223 13 inactive
CG9029: DRSC03129 6 inactive
JIL-1: DRSC11200 7 inactive
dpr16: DRSC12217 10 inactive; DRSC12249 9 inactive
CG30393: DRSC04253 7 inactive; DRSC24833 3 inactive
CG8745: DRSC11033 5 inactive; DRSC11034 3 inactive; DRSC22741 10 inactive
ana1: DRSC16079 8 inactive; DRSC21825 3 inactive; DRSC30086 3 inactive
Ank: DRSC17127 13 inactive; DRSC29865 8 inactive
maf-S: DRSC07348 7 inactive
cDIP: DRSC14267 2 inactive
CG30109: DRSC05675 4 inactive
Vps52: DRSC03050 13 inactive
CG12811: DRSC14549 6 inactive
Tango1: DRSC02127 9 inactive; DRSC27972 8 inactive
Cpsf100: DRSC14146 6 inactive; DRSC28396 7 inactive
Sod1: DRSC11286 9 inactive
RNASEK: DRSC21641 12 inactive
PTPMT1: DRSC14235 7 inactive
CG4440: DRSC02747 2 inactive; DRSC28042 3 inactive
CG11550: DRSC14326 14 inactive
Noc1: DRSC10921 3 inactive
inaF-B: DRSC18903 9 inactive
lig: DRSC07246 9 inactive; DRSC07247 1 inactive; DRSC23574 7 inactive
CG7394: DRSC10835 3 inactive
Mcad: DRSC09871 9 inactive; DRSC25980 7 inactive

11 entries already listed, ordered by “mitotic cells, replicate 1”, low to high.
gene knocked down	dsRNA	mitotic cells, replicate 1	Call
CG13023	DRSC09903	3	inactive
lectin-29Ca	DRSC02635	4	inactive
CG30378	DRSC05071	5	inactive
arm	DRSC18738	5	inactive
Osi10b	DRSC12279	7	inactive
CG14297	DRSC14776	7	inactive
CG15211	DRSC19657	8	inactive
arm	DRSC39139	9	inactive
CG14440	DRSC23008	10	inactive
CycB	DRSC04605	11	inactive
alrm	DRSC14436	11	inactive
